# Test results taken from the supplement of paper PMC3334620.
# Over roughly 33,000 sequences, “E-score (-0.5 to 0.5)” has its median near -0.0014; the highest 2% begin near 0.25. This is one part of the list.
# Target: T1, Cad1 (UniProt P24813)
# T1 sequence: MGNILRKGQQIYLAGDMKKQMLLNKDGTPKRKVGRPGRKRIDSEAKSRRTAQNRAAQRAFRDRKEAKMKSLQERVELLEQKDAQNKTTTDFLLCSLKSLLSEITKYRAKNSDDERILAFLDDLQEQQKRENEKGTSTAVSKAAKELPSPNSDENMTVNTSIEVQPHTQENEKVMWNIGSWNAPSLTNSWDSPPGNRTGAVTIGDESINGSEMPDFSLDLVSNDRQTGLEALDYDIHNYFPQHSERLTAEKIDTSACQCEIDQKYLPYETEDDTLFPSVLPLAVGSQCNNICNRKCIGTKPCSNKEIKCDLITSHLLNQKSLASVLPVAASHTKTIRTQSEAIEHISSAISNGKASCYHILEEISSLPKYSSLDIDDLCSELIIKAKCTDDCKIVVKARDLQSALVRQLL
# Experiment: PBM E-score (8-mer binding enrichment) (E-score (-0.5 to 0.5)); higher = stronger / more preferred TF binding
# Conditions: protein concentration: 100 nM; construct: GST-full length
# Procedure, shortened: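 GST-tagged yeast TFs (full-length or DNA-binding domain) were made by PURExpress in vitro transcription/translation and applied at about 100-200 nM to universal all-10-mer Agilent arrays. The arrays were made double-stranded by primer extension, on fresh or once-stripped slides. Bound protein was detected with fluorescent anti-GST, and scans were normalised with masliner. Each ungapped eight-base word, pooled with its reverse complement, received an E-score (modified Wilcoxon-Mann-Whitney statistic) from the Universal PBM Analysis Suite.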
row,Sequence,PBM E-score
1,GTGACCAA,0.0231
2,CGACATTC,0.00278
3,AGAGTACT,-0.077
4,AGGGTGAG,-0.167
5,CAACTTGG,0.111
6,AGGGTGAC,0.103
7,GACCTTAA,-0.0418
8,CTATATCC,-0.0465
9,ATATCCTC,-0.0127
10,CCCTGGCG,-0.0134
11,CTCGTGCC,-0.129
12,AGGCAATG,-0.0344
13,ATTCATAA,0.111
14,CCGCACAG,0.00344
15,CGGCAAGC,-0.123
16,ATAAACTC,0.16
17,ACCTATTA,0.0336
18,ACAAGCCA,-0.115
19,CAGTATCG,0.0176
20,CCATGACA,0.126
21,CTGCTGGA,-0.0574
22,CTGAGCAC,0.0489
23,AGTCCTGC,0.00453
24,CCCCCTGC,-0.378
25,AACTATCT,0.0668

row,Sequence,PBM E-score
1,GTAATCAA,0.253
2,CTATTCGC,0.157
3,GAGGTACA,-0.18
4,GCAGACGC,0.072
5,AAGGGGTC,-0.223
6,GCCTCCCC,-0.147
7,CTCGTCGA,0.123
8,AACTGAAT,-0.199
9,CGCAATGA,-0.00237
10,ATCAGTAA,0.126
11,GGTCGACC,0.263
12,CTTCTTCA,-0.199
13,GCAATAGC,0.0208
14,GCAAAATA,0.128
15,CATGCCCG,0.0393
16,ATGCGTCG,0.0515
17,TAAGAATA,-0.0959
18,AATGATAT,0.222
19,GTGCCTAA,0.00582
20,GACGGCTA,-0.0222
21,AGGGACAT,-0.0015
22,AGAATAAA,0.218
23,ACAGAGTG,-0.0197
24,CCTTTAGA,-0.168
25,CAACAACG,0.211

# Shown with tabs: part of the list above
row	Sequence	PBM E-score
2	CGACATTC	0.00278
3	AGAGTACT	-0.077
4	AGGGTGAG	-0.167
5	CAACTTGG	0.111
6	AGGGTGAC	0.103
7	GACCTTAA	-0.0418
8	CTATATCC	-0.0465
10	CCCTGGCG	-0.0134
11	CTCGTGCC	-0.129
13	ATTCATAA	0.111
16	ATAAACTC	0.16
18	ACAAGCCA	-0.115
19	CAGTATCG	0.0176
23	AGTCCTGC	0.00453
24	CCCCCTGC	-0.378
25	AACTATCT	0.0668
3	GAGGTACA	-0.18
5	AAGGGGTC	-0.223
7	CTCGTCGA	0.123
9	CGCAATGA	-0.00237
10	ATCAGTAA	0.126
11	GGTCGACC	0.263
13	GCAATAGC	0.0208
15	CATGCCCG	0.0393
16	ATGCGTCG	0.0515
17	TAAGAATA	-0.0959
18	AATGATAT	0.222
19	GTGCCTAA	0.00582
20	GACGGCTA	-0.0222
21	AGGGACAT	-0.0015
22	AGAATAAA	0.218
23	ACAGAGTG	-0.0197
25	CAACAACG	0.211

# Following part.

row,Sequence,PBM E-score
1,CCGATAGA,-0.0969
2,ATCGTGAA,0.0648
3,ACGGTATC,0.17
4,CAGTAAAA,0.184
5,AACGGCCC,-0.206
6,CTAATGAC,-0.151
7,CCAGAAAA,-0.0283
8,CCGTGGTA,-0.132
9,CATCATAA,0.115
10,TGCCAGCA,0.0667
11,GTCGTGAA,-0.102
12,GCGGTACC,0.103
13,GAGATCAC,-0.0158
14,AGAAGTAC,-0.0894
15,AAAGTAAT,0.173
16,AACACACA,0.0441
17,TGCGCAAA,0.157
18,GAATTAGC,0.134
19,TCACAGCA,0.00981
20,AGCGACCG,0.0505
21,CAACAGGG,-0.0494
22,AACGGCGG,-0.0136
23,ATAACGAA,0.258
24,CCGTACGG,-0.103
25,AAAGTATA,0.0724

row,Sequence,PBM E-score
1,ACAGTGGG,-0.157
2,CTTGTTCA,0.0427
3,AATAATTG,0.0365
4,CAAGCACA,-0.0831
5,ACCTCCGC,-0.116
6,CAGACCAA,0.172
7,CAAGGTTA,-0.133
8,ACGGGTTC,-0.0875
9,ACCCTAAT,-0.0808
10,CATAATTA,0.279
11,CTCCGAGC,0.139
12,AAGATGTA,-0.00668
13,TAAGACAA,0.0779
14,GGCTCTAC,-0.14
15,GGAACACC,0.0385
16,AGAACTAA,0.173
17,ATCGACGG,0.0606
18,GACCCTCC,-0.147
19,TCAACGCA,0.134
20,GCAACCAA,0.0377
21,CTTCCCAC,-0.058
22,CGTAGAGC,0.028
23,CCATTCGA,-0.116
24,GACGGTGA,0.0758
25,AGCGGAGC,-0.109

row,Sequence,PBM E-score
1,GGGCGTTA,0.0777
2,GTCCGACA,0.109
3,TAGTCTGA,0.0529
4,CGGACACC,-0.0722
5,CAGGAGGG,-0.349
6,GTCCCATA,-0.183
7,ATGATTTA,0.178
8,ACACCGAC,-0.146
9,GGCAAATA,0.198
10,CATCGGGA,0.0722
11,CTCTCATC,-0.109
12,CCCGGATA,0.0426
13,CGTCCACA,0.0862
14,CCGCCGCA,-0.0248
15,CGGATCAA,0.175
16,ACGTCGCA,0.00852
17,ACTGGGCA,-0.283
18,CGGGCACG,-0.0374
19,AACCTTCT,-0.228
20,GTAATATA,0.327
21,CCGCTAGG,-0.161
22,CACCACAA,0.0849
23,GTATGCTA,-0.0728
24,CTCGTAAC,0.112
25,GTAAGAAC,0.166

row,Sequence,PBM E-score
1,AATTTCAA,0.169
2,ACAAACCT,0.13
3,CCATCAGG,-0.161
4,ATATAAGG,0.188
5,TATCACGA,-0.0139
6,CGTTGCCA,0.1
7,GGGCTGAA,0.0352
8,ATCGATTC,0.0832
9,ATCGGCTG,0.048
10,CGTGGACC,-0.187
11,AGTTTTTC,0.0832
12,AACGCAGA,0.075
13,AGAGATAA,0.064
14,CACACACG,-0.0832
15,CAGCGAAC,0.102
16,GGAGGCAA,-0.162
17,AGGTCGAG,-0.0283
18,GTGTCCCA,-0.0626
19,ATCAGGGG,-0.231
20,AGAAGGGC,-0.137
21,GGCACATA,0.132
22,GCGCAATA,0.121
23,ACTGATCT,0.0639
24,ACCTCCAC,-0.0904
25,GAGGACAC,0.0722

row,Sequence,PBM E-score
1,CGTTAGAG,-0.0495
2,ATGTGGTA,0.0831
3,GCGAGAGA,-0.0838
4,GCTATCCA,-0.144
5,ACATGCGA,-0.189
6,GCGGCAAC,0.13
7,AGGATAGG,-0.127
8,GAGTTATA,0.0281
9,GGCGAGGA,-0.0516
10,TCGTCAGA,-0.0952
11,GCCATACC,-0.0901
12,CGGACTAG,-0.205
13,CCCTTTTA,-0.221
14,CGTCTTTA,0.163
15,GATTTTGC,-0.15
16,GCGACACC,0.0132
17,ACCCCTTC,-0.268
18,CATCGCCG,-0.0925
19,CCACCGGC,-0.264
20,CCCTTGCC,-0.0937
21,CCGGGAAC,-0.164
22,ATTCTTAA,0.00046
